Here are results for 7 compounds from PubChem BioAssay AID256 (DTP/NCI, 2004).

The assay has as its system CD2F1 mice, L1210 leukemia ip, survival T/C. The assay is described as follows: NCI In Vivo Anticancer Drug Screen. Data for tumor model L1210 Leukemia (intraperitoneal) in CD2F1 (CDF1) mice. Conditions: higher T/C = longer survival. The method in brief:
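Tumor-bearing mice (transplanted tumor) were split into treated and vehicle control groups, and the measured endpoint of each treated group was divided by that of its vehicle controls.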

Setting [1] is: T/C endpoint: mean survival time, dose: 50.0 mg/kg/injection, schedule: Q01DX007 (ip), vehicle: saline.
Where [2] appears, read: T/C endpoint: mean survival time, dose: 50.0 mg/kg/injection, schedule: Q01DX009 (ip), vehicle: saline.
Where [3] appears, read: T/C endpoint: mean survival time, dose: 100.0 mg/kg/injection, schedule: Q01DX009 (ip), vehicle: saline.
Setting [4] is: T/C endpoint: mean survival time, dose: 100.0 mg/kg/injection, schedule: Q04DX003 (ip), vehicle: saline.
[5] abbreviates: T/C endpoint: mean survival time, dose: 100.0 mg/kg/injection, schedule: Q01DX009 (ip), vehicle: saline with Tween-80.

The list shows only some results of the screen, not a fair sample: it gathers tests that were run many times, whatever their T/C, doses with no T/C, and many T/C values between a quarter and a half above the control. Other doses and runs of a compound stand elsewhere. T/C: endpoint of the treated group in % of that of the vehicle group. Some entries give survivors of the animals treated and no T/C: the source holds a T/C of zero for them, seemingly a mark for toxic or unscored doses. Some survivor counts are full or nearly so, which does not show that the dose was tolerated: survival well below the control is almost never listed, so the zero probably covers shortened survival too. Counts of survivors are from the toxicity check (mostly the fifth day) where no day follows; animals may have died later. Schedules are NCI's codes, read here as Q, the interval in days (D) or hours (H), X, the number of doses. Some entries hold several experiments; the values are given in rising order. Some schedule codes hold Z or #, which are not explained here. Where survival is the endpoint, the PubChem record calls one and a half times the control and up active, and a quarter to a half above the control has no call in these data; cut-offs in other NCI protocols can differ. Some T/C values are followed by the survivors on the day toxicity was checked, most often the fifth; where none is given, no animal had died by that day. Marks such as (2×) count equal records among those shown.

In the case of `O=C(CCBr)N1CCN(C(=O)CCBr)CC1`, the T/C runs as follows: (T/C endpoint: mean survival time, dose: 25.0 mg/kg/injection, schedule: Q01DX007 (ip), vehicle: saline) 127 % of control; under setting [1], 144 % of control; under setting [2], 144 % of control; (T/C endpoint: mean survival time, dose: 64.0 mg/kg/injection, schedule: Q04DX003 (oral), vehicle: saline) 139 % of control; under setting [3], 146 % of control; under setting [4], 148 % of control. For the same compound, the T/C (T/C endpoint: mean survival time, dose: 128.0 mg/kg/injection, schedule: Q01DX001 (ip), vehicle: saline) was 140 % of control; the T/C (T/C endpoint: mean survival time, dose: 128.0 mg/kg/injection, schedule: Q08DX002 (oral), vehicle: saline) was 137 % of control; the T/C (T/C endpoint: mean survival time, dose: 256.0 mg/kg/injection, schedule: Q01DX001 (oral), vehicle: saline) is 134 % of control. Further, the survivor count (T/C endpoint: mean survival time, dose: 64.0 mg/kg/injection, schedule: Q03HX008 (ip), vehicle: saline) is listed as 9 of 10; the survivor count (T/C endpoint: mean survival time, dose: 64.0 mg/kg/injection, schedule: Q03HX008 (oral), vehicle: saline) was 8 of 10; the survivor count (T/C endpoint: mean survival time, dose: 64.0 mg/kg/injection, schedule: Q03HX016 (ip), vehicle: saline) is given as 8 of 10; the survivor count (T/C endpoint: mean survival time, dose: 64.0 mg/kg/injection, schedule: Q03HX016 (oral), vehicle: saline) is on record as 10 of 10; the survivor count (T/C endpoint: mean survival time, dose: 64.0 mg/kg/injection, schedule: Q03HX024 (ip), vehicle: saline) is given as 10 of 10; the survivor count (T/C endpoint: mean survival time, dose: 64.0 mg/kg/injection, schedule: Q03HX024 (oral), vehicle: saline) is given as 10 of 10. For the same compound, the survivor count runs as follows: (T/C endpoint: mean survival time, dose: 128.0 mg/kg/injection, schedule: Q01DX009 (ip), vehicle: saline) 10 of 10; (T/C endpoint: mean survival time, dose: 128.0 mg/kg/injection, schedule: Q03HX008 (ip), vehicle: saline) 6 of 10; (T/C endpoint: mean survival time, dose: 128.0 mg/kg/injection, schedule: Q03HX008 (oral), vehicle: saline) 4 of 10; (T/C endpoint: mean survival time, dose: 128.0 mg/kg/injection, schedule: Q03HX024 (oral), vehicle: saline) 5 of 10; (T/C endpoint: mean survival time, dose: 256.0 mg/kg/injection, schedule: Q01DX009 (ip), vehicle: saline) 9 of 10; (T/C endpoint: mean survival time, dose: 256.0 mg/kg/injection, schedule: Q04DX003 (ip), vehicle: saline) 5 of 10. Moreover, the survivor count is reported as 6 of 10 (T/C endpoint: mean survival time, dose: 256.0 mg/kg/injection, schedule: Q04DX003 (oral), vehicle: saline); 6 of 10 (T/C endpoint: mean survival time, dose: 512.0 mg/kg/injection, schedule: Q01DX001 (ip), vehicle: saline); 5 of 10 (T/C endpoint: mean survival time, dose: 512.0 mg/kg/injection, schedule: Q01DX001 (oral), vehicle: saline); 5 of 10 (T/C endpoint: mean survival time, dose: 512.0 mg/kg/injection, schedule: Q04DX003 (ip), vehicle: saline); 5 of 10 (T/C endpoint: mean survival time, dose: 512.0 mg/kg/injection, schedule: Q04DX003 (oral), vehicle: saline); 4 of 10 (T/C endpoint: mean survival time, dose: 512.0 mg/kg/injection, schedule: Q08DX002 (ip), vehicle: saline). The survivor count (T/C endpoint: mean survival time, dose: 1024.0 mg/kg/injection, schedule: Q01DX001 (ip), vehicle: saline) is given as 4 of 10; the survivor count (T/C endpoint: mean survival time, dose: 1024.0 mg/kg/injection, schedule: Q01DX001 (oral), vehicle: saline) was 2 of 10; the survivor count (T/C endpoint: mean survival time, dose: 1024.0 mg/kg/injection, schedule: Q04DX003 (oral), vehicle: saline) is 1 of 10.
For the compound `CC1OC1c1ccc(-c2ccc(C3OC3C)cc2)cc1` (stereo not drawn), the survivor count runs as follows: (T/C endpoint: mean survival time, dose: 300.0 mg/kg/injection, schedule: Q01DX Z (ip), vehicle: saline) 0 of 6; (T/C endpoint: mean survival time, dose: 600.0 mg/kg/injection, schedule: Q01DX Z (ip), vehicle: saline) 0 of 6; (T/C endpoint: mean survival time, dose: 1200.0 mg/kg/injection, schedule: Q01DX Z (ip), vehicle: saline) 0 of 6.
With `C#CCOC1CCCC1O` (stereo not drawn), the survivor count (T/C endpoint: mean survival time, dose: 200.0 mg/kg/injection, schedule: Q04DX003 (ip), vehicle: acetone) is 4 of 6 and the survivor count (T/C endpoint: mean survival time, dose: 400.0 mg/kg/injection, schedule: Q04DX003 (ip), vehicle: acetone) is reported as 0 of 6.
Regarding `O=C[C@@H](CO)O[C@H](C=O)n1cnc2c(=O)[nH]cnc21`, the T/C by setting is: (T/C endpoint: mean survival time, dose: 40.0 mg/kg/injection, schedule: Q01DX009 (ip), vehicle: saline) 127 % of control; under setting [1], 136 % of control; under setting [2], 136 % of control; (T/C endpoint: mean survival time, dose: 50.0 mg/kg/injection, schedule: Q03DX003 (ip), vehicle: saline) 130 % of control; (T/C endpoint: mean survival time, dose: 80.0 mg/kg/injection, schedule: Q01DX009 (ip), vehicle: saline) 135 % of control; under setting [3], 148 % of control. Also, the T/C (T/C endpoint: mean survival time, dose: 100.0 mg/kg/injection, schedule: Q03DX003 (ip), vehicle: saline) was 148 % of control; the T/C under setting [4] was 143 % of control [5 of 6 alive]; the T/C (T/C endpoint: mean survival time, dose: 280.0 mg/kg/injection, schedule: Q01DX001 (ip), vehicle: saline) was 141 % of control; the T/C (T/C endpoint: median survival time, dose: 39.0 mg/kg/injection, schedule: Q01DX009 (ip), vehicle: sodium bicarbonate) was 128 % of control; the T/C (T/C endpoint: median survival time, dose: 59.0 mg/kg/injection, schedule: Q01DX009 (ip), vehicle: clinical formulation) is 130 % of control; the T/C (T/C endpoint: median survival time, dose: 59.0 mg/kg/injection, schedule: Q01DX009 (ip), vehicle: sodium bicarbonate) was 135 % of control. The T/C by setting is: (T/C endpoint: median survival time, dose: 64.8 mg/kg/injection, schedule: Q01DX005 (ip), vehicle: saline) 125 % of control; (T/C endpoint: median survival time, dose: 65.0 mg/kg/injection, schedule: Q01DX009 (ip), vehicle: water) 131, 137, 143, 150, 156, 168, 175 % of control; (T/C endpoint: median survival time, dose: 100.0 mg/kg/injection, schedule: Q01DX005 (ip), vehicle: distilled water + Tween-80) 142 % of control; (T/C endpoint: median survival time, dose: 108.0 mg/kg/injection, schedule: Q01DX005 (ip), vehicle: saline) 139 % of control; (T/C endpoint: median survival time, dose: 108.0 mg/kg/injection, schedule: Q01DX009 (ip), vehicle: water) 162, 168, 175 (2×), 181, 181 [7 of 8 alive], 187 % of control; (T/C endpoint: median survival time, dose: 180.0 mg/kg/injection, schedule: Q01DX009 (ip), vehicle: water) 112 [6 of 8 alive], 118 (2×), 137, 175, 193, 218 % of control. For the same compound, the survivor count was 4 of 8 and 5 of 6 (T/C endpoint: mean survival time, dose: 320.0 mg/kg/injection, schedule: Q01DX009 (ip), vehicle: saline); 2 of 7 (T/C endpoint: mean survival time, dose: 560.0 mg/kg/injection, schedule: Q01DX001 (ip), vehicle: saline); 5 of 10 (T/C endpoint: median survival time, dose: 200.0 mg/kg/injection, schedule: Q01DX009 (ip), vehicle: clinical formulation); 3 of 10 (T/C endpoint: median survival time, dose: 200.0 mg/kg/injection, schedule: Q01DX009 (ip), vehicle: sodium bicarbonate); 0 of 10 (T/C endpoint: median survival time, dose: 300.0 mg/kg/injection, schedule: Q01DX009 (ip), vehicle: clinical formulation); 0 of 10 (T/C endpoint: median survival time, dose: 300.0 mg/kg/injection, schedule: Q01DX009 (ip), vehicle: sodium bicarbonate). In addition, the survivor count is, setting by setting: (T/C endpoint: median survival time, dose: 300.0 mg/kg/injection, schedule: Q01DX009 (ip), vehicle: water) 0 of 8, 1 of 8, 2 of 8, 3 of 8; (T/C endpoint: median survival time, dose: 400.0 mg/kg/injection, schedule: Q01DX005 (ip), vehicle: distilled water + Tween-80) 2 of 6.
As to `Nc1ccc(OCC(O)CN2CCN(c3ccccc3)CC2)cc1` (stereo not drawn), the survivor count (T/C endpoint: mean survival time, dose: 400.0 mg/kg/injection, schedule: Q04DX002 (ip), vehicle: saline with Tween-80) is on record as 3 of 3.
In the case of `[C-]1=CC2C=CC1C1[C-]=CC21.[Cl][Pd][Cl]` (stereo not drawn), the survivor count is, setting by setting: (T/C endpoint: mean survival time, dose: 25.0 mg/kg/injection, schedule: Q01DX009 (ip), vehicle: saline with Tween-80) 0 of 6; (T/C endpoint: mean survival time, dose: 50.0 mg/kg/injection, schedule: Q01DX009 (ip), vehicle: saline with Tween-80) 0 of 6; under setting [5], 0 of 6.
On to `CC(C#N)CCCC#N` (stereo not drawn), for which the survivor count runs as follows: under setting [5], 2 of 6; (T/C endpoint: mean survival time, dose: 200.0 mg/kg/injection, schedule: Q04DX003 (ip), vehicle: saline with Tween-80) 0 of 6; (T/C endpoint: mean survival time, dose: 400.0 mg/kg/injection, schedule: Q04DX003 (ip), vehicle: saline with Tween-80) 0 of 6.
